Measured values: article PMC11960969, “Mdga2 deficiency leads to an aberrant activation of BDNF/TrkB signaling that underlies autism-relevant synaptic and behavioral changes in mice” (PLOS Biology, 2025)

By UniProt entry, the sequences of proteins in these tests, tags left out. Residues count along the entry.
UniProt Q16620, residues 32-822: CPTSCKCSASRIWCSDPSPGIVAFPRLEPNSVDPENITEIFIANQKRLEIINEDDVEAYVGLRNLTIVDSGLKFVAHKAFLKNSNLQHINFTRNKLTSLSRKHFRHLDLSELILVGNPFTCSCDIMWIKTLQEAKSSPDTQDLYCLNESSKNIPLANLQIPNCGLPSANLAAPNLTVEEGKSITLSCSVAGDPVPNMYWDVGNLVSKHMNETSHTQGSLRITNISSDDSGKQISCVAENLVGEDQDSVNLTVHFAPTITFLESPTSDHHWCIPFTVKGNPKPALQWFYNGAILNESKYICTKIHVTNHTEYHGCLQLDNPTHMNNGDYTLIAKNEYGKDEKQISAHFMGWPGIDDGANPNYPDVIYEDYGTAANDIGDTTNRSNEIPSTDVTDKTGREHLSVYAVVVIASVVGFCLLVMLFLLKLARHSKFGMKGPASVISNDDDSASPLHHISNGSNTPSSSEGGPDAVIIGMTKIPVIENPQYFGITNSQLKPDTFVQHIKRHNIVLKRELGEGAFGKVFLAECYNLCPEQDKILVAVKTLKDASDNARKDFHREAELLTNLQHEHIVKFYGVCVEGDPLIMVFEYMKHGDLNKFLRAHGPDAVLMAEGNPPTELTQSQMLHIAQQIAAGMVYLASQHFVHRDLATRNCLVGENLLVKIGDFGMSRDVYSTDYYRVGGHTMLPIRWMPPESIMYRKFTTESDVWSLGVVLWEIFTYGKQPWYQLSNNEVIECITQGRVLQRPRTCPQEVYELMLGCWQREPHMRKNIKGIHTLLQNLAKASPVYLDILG

Biological target: T1, GFP-tagged full-length human MDGA2 (MDGA2-GFP) (human) (UniProt Q7Z553)
T1 sequence: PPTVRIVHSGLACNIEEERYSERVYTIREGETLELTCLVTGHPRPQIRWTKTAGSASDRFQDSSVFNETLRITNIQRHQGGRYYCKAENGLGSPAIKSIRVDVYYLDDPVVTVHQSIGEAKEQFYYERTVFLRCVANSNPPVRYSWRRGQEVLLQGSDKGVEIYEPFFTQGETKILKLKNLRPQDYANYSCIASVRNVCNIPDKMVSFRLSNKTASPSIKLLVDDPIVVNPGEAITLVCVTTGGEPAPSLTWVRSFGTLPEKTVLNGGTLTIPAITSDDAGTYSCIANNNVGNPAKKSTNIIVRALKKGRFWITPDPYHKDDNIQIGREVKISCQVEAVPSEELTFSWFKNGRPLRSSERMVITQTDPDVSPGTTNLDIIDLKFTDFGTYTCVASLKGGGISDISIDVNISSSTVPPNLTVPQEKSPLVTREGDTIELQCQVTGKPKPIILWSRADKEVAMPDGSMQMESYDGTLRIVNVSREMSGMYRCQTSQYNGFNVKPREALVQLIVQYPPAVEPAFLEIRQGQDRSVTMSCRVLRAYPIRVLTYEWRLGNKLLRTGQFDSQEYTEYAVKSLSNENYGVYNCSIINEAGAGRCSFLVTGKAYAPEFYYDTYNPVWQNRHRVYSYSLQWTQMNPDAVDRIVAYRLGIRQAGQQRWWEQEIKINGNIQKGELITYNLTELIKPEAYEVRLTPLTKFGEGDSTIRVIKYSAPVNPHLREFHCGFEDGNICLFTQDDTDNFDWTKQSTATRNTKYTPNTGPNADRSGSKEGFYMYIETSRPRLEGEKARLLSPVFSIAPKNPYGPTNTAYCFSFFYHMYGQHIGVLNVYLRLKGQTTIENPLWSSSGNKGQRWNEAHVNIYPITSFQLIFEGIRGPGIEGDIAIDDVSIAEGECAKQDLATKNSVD
Assay: affinity purification with mass spectrometry; MDGA2-GFP expressed in SH-SY5Y cells for 24 h; lysate (10 mM Tris-HCl pH 7.5, 150 mM NaCl, 0.5 mM EDTA, 0.5% NP-40) precipitated with anti-GFP and Protein G Agarose at 4 °C overnight; LC-MS/MS

TrkB, endogenous in SH-SY5Y cells (from UniProt Q16620 32-822) (receptor)
binding: binds

These are yes or no findings as the source states them, for the method shown. Binding seen in cells or lysates may run through a third protein. Here binding means that the protein was enriched with, or labelled near, the bait; the list need not be complete. Where a sequence is shown, tags or fusion partners need not be part of it.
